No constants are given. Whether binding was seen depends on the method and setting. A result given as binding can be weak or reduced; the word gives no strength.
Tests used:
[1] = molecular target: long form of human leptin receptor, stably transfected in BAF/3 cells (cell homogenate) (human) (UniProt P48357); experiment: competition with 125I-hLEP, homogenate of BAF/3 cells with long-form human leptin receptor
[2] = molecular target: long form of human leptin receptor, stably transfected in BAF/3 cells (cell homogenate) (human) (UniProt P48357); experiment: competition of unlabeled leptin with 125I-human leptin for binding to homogenate of BAF/3 cells transfected with the long form of human leptin receptor

The chains behind the UniProt entries cited, without tags or fusion partners. Where a name states a change or a piece, a line headed by the entry shows the natural chain unless it says otherwise.
UniProt P48357: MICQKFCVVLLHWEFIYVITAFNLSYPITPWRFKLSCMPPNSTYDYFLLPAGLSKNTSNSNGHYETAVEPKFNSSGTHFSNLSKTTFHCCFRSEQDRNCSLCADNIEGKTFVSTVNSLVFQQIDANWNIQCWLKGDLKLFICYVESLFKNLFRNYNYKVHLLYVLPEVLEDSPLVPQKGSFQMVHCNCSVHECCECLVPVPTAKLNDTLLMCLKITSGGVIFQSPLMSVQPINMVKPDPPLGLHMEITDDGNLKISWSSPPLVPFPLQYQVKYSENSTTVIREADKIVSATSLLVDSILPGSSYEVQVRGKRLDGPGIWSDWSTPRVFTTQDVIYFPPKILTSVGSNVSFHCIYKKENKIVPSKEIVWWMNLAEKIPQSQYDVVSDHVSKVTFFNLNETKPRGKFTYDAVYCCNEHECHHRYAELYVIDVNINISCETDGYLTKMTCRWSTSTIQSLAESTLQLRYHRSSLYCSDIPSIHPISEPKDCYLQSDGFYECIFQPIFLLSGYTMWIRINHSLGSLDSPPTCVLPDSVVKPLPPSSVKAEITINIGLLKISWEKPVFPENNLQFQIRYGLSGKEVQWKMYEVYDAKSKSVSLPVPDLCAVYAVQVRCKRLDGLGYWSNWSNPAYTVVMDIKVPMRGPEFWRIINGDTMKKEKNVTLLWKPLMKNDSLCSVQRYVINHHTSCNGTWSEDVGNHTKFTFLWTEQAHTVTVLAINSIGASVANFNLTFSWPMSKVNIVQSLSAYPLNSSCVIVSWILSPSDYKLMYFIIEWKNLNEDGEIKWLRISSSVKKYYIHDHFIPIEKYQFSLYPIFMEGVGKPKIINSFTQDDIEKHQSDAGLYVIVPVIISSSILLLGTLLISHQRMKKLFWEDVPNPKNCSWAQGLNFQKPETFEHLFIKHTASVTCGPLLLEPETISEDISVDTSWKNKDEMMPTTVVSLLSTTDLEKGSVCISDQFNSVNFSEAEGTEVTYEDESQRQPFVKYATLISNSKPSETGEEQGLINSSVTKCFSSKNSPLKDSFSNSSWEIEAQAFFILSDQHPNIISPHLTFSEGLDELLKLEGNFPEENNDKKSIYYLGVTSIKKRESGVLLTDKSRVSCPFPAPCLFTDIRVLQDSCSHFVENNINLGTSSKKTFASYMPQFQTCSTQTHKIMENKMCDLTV
UniProt Q28603: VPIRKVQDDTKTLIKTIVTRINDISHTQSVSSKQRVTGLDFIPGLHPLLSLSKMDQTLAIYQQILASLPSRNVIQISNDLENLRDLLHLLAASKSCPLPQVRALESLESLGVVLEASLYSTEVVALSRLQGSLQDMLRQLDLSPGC

“ovine leptin (fraction SP) (from UniProt Q28603 1-146) (ligand)” was tested, and the binding [1] was “binds” and the binding [2] was “binds”.
